Results are given in words; binding and its absence hold for the method and conditions named. In cells and extracts the contact can be indirect. Some binding calls cover weakened binding; strength is not graded here.
Target: RBM5 (RNA binding motif 5) (mouse (endogenous in round spermatids)) (UniProt Q91YE7)
Test: co-IP; co-immunoprecipitation from round spermatid extracts with the RBM5 antibody (IgG pull down as control), immunoblot for SFPQ and hnRNP A2/B1

Protein sequences, listed by entry. Tags and fused reporters are not part of them.
UniProt Q91YE7: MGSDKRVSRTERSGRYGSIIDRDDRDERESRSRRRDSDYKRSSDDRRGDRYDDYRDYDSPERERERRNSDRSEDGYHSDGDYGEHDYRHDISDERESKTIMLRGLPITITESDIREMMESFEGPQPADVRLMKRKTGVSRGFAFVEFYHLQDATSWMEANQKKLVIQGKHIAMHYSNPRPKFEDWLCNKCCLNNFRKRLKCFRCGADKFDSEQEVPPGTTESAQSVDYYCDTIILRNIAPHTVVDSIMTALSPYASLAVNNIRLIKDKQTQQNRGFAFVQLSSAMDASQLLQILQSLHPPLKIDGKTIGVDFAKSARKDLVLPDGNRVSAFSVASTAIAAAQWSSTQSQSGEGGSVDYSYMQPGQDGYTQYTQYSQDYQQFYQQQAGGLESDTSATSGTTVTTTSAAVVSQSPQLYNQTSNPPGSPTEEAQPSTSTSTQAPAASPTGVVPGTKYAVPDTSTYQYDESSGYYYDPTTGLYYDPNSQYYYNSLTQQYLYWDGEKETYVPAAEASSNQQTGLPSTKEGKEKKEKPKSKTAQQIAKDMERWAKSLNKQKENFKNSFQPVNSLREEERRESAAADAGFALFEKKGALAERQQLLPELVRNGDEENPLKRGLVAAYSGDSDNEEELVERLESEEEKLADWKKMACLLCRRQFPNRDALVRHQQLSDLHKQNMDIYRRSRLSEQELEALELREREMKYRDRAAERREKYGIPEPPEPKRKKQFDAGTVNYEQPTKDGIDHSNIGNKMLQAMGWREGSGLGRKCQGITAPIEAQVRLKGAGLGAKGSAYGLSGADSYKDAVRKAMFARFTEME
UniProt O88569: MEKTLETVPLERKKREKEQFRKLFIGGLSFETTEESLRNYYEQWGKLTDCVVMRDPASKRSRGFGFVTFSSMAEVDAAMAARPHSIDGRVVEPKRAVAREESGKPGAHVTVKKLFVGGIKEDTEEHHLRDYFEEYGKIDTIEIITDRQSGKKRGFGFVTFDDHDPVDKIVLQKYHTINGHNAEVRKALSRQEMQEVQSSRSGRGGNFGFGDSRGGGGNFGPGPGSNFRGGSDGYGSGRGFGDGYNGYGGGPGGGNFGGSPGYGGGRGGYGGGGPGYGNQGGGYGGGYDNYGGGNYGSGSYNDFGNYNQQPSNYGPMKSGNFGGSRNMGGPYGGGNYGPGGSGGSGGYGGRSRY

Row | binding | Molecule
1 | binds | hnRNP A2/B1 (heterogeneous nuclear ribonucleoprotein A2/B1) (from UniProt O88569 1-353)
2 | binds | splicing factor SFPQ (proline- and glutamine-rich) (protein, UniProt Q8VIJ6 1-699) MSRDRFRSRGGGGGGFHRRGGGGGRGGLHDFRSPPPGMGLNQNRGPMGPGPGGPKPPLPPPPPHQQQQQPPPQQPPPQQPPPHQQPPPHQPPHQQPPPPPQESKPVVPQGPGSAPGVSSAPPPAVSAPPANPPTTGAPPGPGPTPTPPPAVPSTAPGPPPPSTPSSGVSTTPPQTGGPPPPPAGGAGPGPKPGPGPGGPKGGKMPGGPKPGGGPGMGAPGGHPKPPHRGGGEPRGGRQHHAPYHQQHHQGPPPGGPGPRTEEKISDSEGFKANLSLLRRPGEKTYTQRCRLFVGNLPADITEDEFKRLFAKYGEPGEVFINKGKGFGFIKLESRALAEIAKAELDDTPMRGRQLRVRFATHAAALSVRNLSPYVSNELLEEAFSQFGPIERAVVIVDDRGRSTGKGIVEFASKPAARKAFERCSEGVFLLTTTPRPVIVEPLEQLDDEDGLPEKLAQKNPMYQKERETPPRFAQHGTFEYEYSQRWKSLDEMEKQQREQVEKNMKDAKDKLESEMEDAYHEHQANLLRQDLMRRQEELRRMEELHSQEMQKRKEMQLRQEEERRRREEEMMIRQREMEEQMRRQREESYSRMGYMDPRERDMRMGGGGTMNMGDPYGSGGQKFPPLGGGGGIGYEANPGVPPATMSGSMMGSDMRTERFGQGGAGPVGGQGPRGMGPGTPAGYGRGREEYEGPNKKPRF

From paper PMC3723494
